At least one structure is not confirmed: it was looked up by name or label, or the drawing left a doubt.
Test: Photo-stability under continuous UV irradiation
Format: physicochemical
Conditions: Gd@C-dots irradiated for over 24 h

SMILES: O=C1OC2(c3ccc(O)cc3Oc3cc(O)ccc32)c2ccccc21 [fluorescein]
- photo-bleaching of fluorescence: completely bleached within minutes

— US20170151351A1, “Gd-ENCAPSULATED CARBON DOTS AND METHODS OF MAKING AND USING THEREOF” (University of Georgia Research Foundation, Inc., priority 2015, published 2017)
